Among all 400,000 compounds or so, about 13,000 (3.2%) were called active. Inconclusive results, whose numbers are uncertain, are shown with a selection of clear calls. Calls come from the whole dose curve; as a rule, active = well fitted cell-killing curve with a large enough effect; inconclusive = small, poorly fitted or top-dose-only effect, or effect the other way; inactive = flat fitted curve, though single readings scatter. A potency beside an inconclusive call is a rough fit, not a confirmed value.
assay: qHTS assay for MDR1-selective chemotherapeutics: Primary screen using the drug-selected MDR subline cells KB-V1; conditions: KB-V1 MDR cells viability, CellTiter-Glo, 72 h; activity change, negative = cytotoxicity: at 46.1 µM (top of the series); note: nearly all actives have a fitted effect of over 60% in size
Procedure, shortened: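 Cytotoxicity via CellTiter-Glo luminescence after 72 h compound exposure at 37 degrees C. Cells: drug-selected KB-V1 line, DMEM phenol-red free plus 10% FBS. Compounds tested at multiple concentrations; normalized data fitted to concentration-effect curves.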
% is set by controls: 0 for no effect and ±100 for the full control effect; potency is the fitted concentration of half-maximal effect.

SMILES | Potency | activity change, negative = cytotoxicity
Cc1occc1-c1nnc(SCC(=O)NC(C)(C)C)n1C(C)c1ccccc1 (stereo not drawn) | inactive | 
O=C(Nc1cccc(Cl)c1)Nc1cnccn1 | inactive | 
CCC(C)Sc1nc2c(c(=O)[nH]c(=O)n2C)n1CCc1ccccc1 (stereo not drawn) | inconclusive: 10.3 µM [cytotoxic, partial curve] | 
Oc1cc(O)c(/C=C/c2ccnc3ccccc23)c(O)c1 | inconclusive: 29.1 µM [rising, single point] | 
COc1cccc(C2=NOC(C(=O)NCc3ccccc3)C2)c1 (stereo not drawn) | inconclusive: 18.4 µM [cytotoxic, single point] | 
COC(=O)c1ccc2c(=O)n(CCCCCC(=O)N3CCN(c4ccc(OC)cc4)CC3)c(=O)[nH]c2c1 | inactive | 
COc1ccc2nc3sc(C(=O)NCCN4CCc5ccccc5C4)cc3cc2c1 | inconclusive: 4.61 µM [cytotoxic, full curve] | 
Cc1ccc(/C=N/N2CCN(Cc3ccc(C)cc3)CC2)cc1 | inconclusive: 29.1 µM [rising, single point] | 
CCOc1ccc(CNC(=O)c2ccc(Sc3ccc(Cl)cc3)c(NC(C)=O)c2)cc1OC | inactive | 
Cc1ccc(CC2SC(=Nc3ccccc3)N(c3ccccc3)C2=O)cc1 (stereo not drawn) | inconclusive: 29.1 µM [cytotoxic, single point] | 
CC(=O)c1ccc(N2CCN(C(=O)COc3ccc(F)cc3)CC2)c(F)c1 | inconclusive: 23.1 µM [cytotoxic, partial curve, poor fit] | 
Cc1ccc(NC(=O)c2cccs2)cc1S(=O)(=O)N(C)C | inconclusive: 29.1 µM [cytotoxic, partial curve, poor fit] | 
Cc1onc(-c2ccccc2Cl)c1C(=O)Nc1sc2c(c1C#N)CCC2 | inconclusive: 8.91 µM [cytotoxic, partial curve, poor fit] | 
CC(C)[n+]1ccn(C2=C([O-])c3ccccc3C(=O)/C2=N\S(=O)(=O)c2ccccc2)c1 | inactive | 
O=C1CN(C(=O)c2ccc(Cl)c(S(=O)(=O)N3CCc4ccccc43)c2)c2ccccc2N1 | inconclusive: 20.6 µM [cytotoxic, single point] | 
Cc1cc2nc(-c3ccc(F)cc3)c(Cc3ccsc3)n2c(C)c1Br | inconclusive: 23.1 µM [cytotoxic, single point] | 
CC(=O)Nc1cc(C(=O)NCc2ccco2)ccc1Sc1ccc(Cl)cc1 | inconclusive: 18.4 µM [cytotoxic, single point] | 
Oc1ccc(/C=N/Nc2nc(N3CCCCCC3)nc(N3CCCCCC3)n2)c(O)c1 | inconclusive: 20.6 µM [cytotoxic, single point] | 
O=C(O[C@H]1[C@H](Cc2ccccc2)NS(=O)(=O)[C@H]2C[C@@H]3C=C[C@]12O3)c1ccccc1Br | inactive | 
C/C=C/C(=O)OCC(=O)Nc1cccc(F)c1 | inconclusive: 29.1 µM [cytotoxic, single point] | 
OC(c1ccccc1)c1nc(-c2cnc3ccccc3c2)cs1 (stereo not drawn) | active: 16.4 µM | 
CCS(=O)(=O)c1nc(S(=O)(=O)c2ccc(Cl)cc2)c(NCc2ccccc2Cl)s1 | inactive | 
CC(=O)N1CC[n+]2c(-c3ccc(Cl)cc3Cl)csc21 | inconclusive: 29.1 µM [cytotoxic, single point] | 

SMILES | Potency | activity change, negative = cytotoxicity
Cc1ccc(CNC(=O)c2ccccc2NS(C)(=O)=O)cc1 | inconclusive: 3.26 µM [rising, partial curve, poor fit] | 
CCCn1c(N)c(Sc2ccccc2[N+](=O)[O-])c(=O)n(CCC)c1=O | inactive | 
CCOc1ccc(N(CC(=O)Nc2ccccc2F)S(=O)(=O)c2c(C)[nH]c(=O)[nH]c2=O)cc1 | inconclusive: 0.058 µM [rising, full curve] | 
Cc1ccc(-c2cc(C(F)(F)F)n3ncc(C(=O)N4CCCCC4c4cccnc4)c3n2)cc1 (stereo not drawn) | inconclusive: 7.31 µM [cytotoxic, partial curve] | 
O=C(CCNS(=O)(=O)c1ccc(F)c(Cl)c1)NCc1ccccc1F | inconclusive: 23.1 µM [cytotoxic, single point] | 
O=C1OCC2=C1C(c1ccc(F)cc1)c1cc3c(cc1N2)OCCO3 (stereo not drawn) | active: 0.0326 µM | 
CCOC(=O)N1CCC2CC1c1cc(-c3cccc(OC)c3)ccc12 (stereo not drawn) | inactive | 
C#CCNC(=O)C[C@@H]1C[C@@]2(C(=O)OC)CC(C)(C)CC=C2N(Cc2cccc3ccccc23)C1=O | active: 23.1 µM | 
CCCCn1c(N)c(N(CCC(C)C)C(=O)CC2CCCC2)c(=O)[nH]c1=O | inactive | 
CC(C)C#Cc1cnc2c(c1)C(=O)N([C@@H](C)CO)C[C@@H](C)[C@H](CN(C)Cc1cccc(F)c1)O2 | inactive | 
CCOc1ccc(OCC)c(S(=O)(=O)NCCOC23CC4CC(CC(C4)C2)C3)c1 | inconclusive: 18.4 µM [cytotoxic, single point] | 
CC(C)(C)c1ccc(C(=O)N2CCCN(C(=O)c3ccc(C(C)(C)C)cc3)CC2)cc1 | inconclusive: 10.3 µM [cytotoxic, partial curve] | 
O=C(CC(Sc1n[nH]c(-c2ccccc2)n1)c1ccccc1)NCc1ccccc1 (stereo not drawn) | inconclusive: 20.6 µM [cytotoxic, single point] | 
C=CCN(c1ccccc1C(=O)NCC(=O)O)S(=O)(=O)c1ccccc1C | inactive | 
CC1(C)Cc2nc3nc(SCC(=O)NCCc4ccccc4)n(-c4ccccc4)c(=O)c3cc2CO1 | inconclusive: 9.2 µM [cytotoxic, partial curve] | 
CCc1ccc(Nc2nc(N)nc(CSc3nc4ccccc4s3)n2)cc1 | inactive | 
COc1ccccc1CN1CC(=O)N2CSC[C@H]2C1=O | inconclusive: 32.6 µM [rising, single point] | 
N#Cc1ccc(-c2nc3c4ccccc4ccn3c2Cc2ccsc2)cc1 | inactive | 
Cc1ccsc1C(=O)N1CCC1(C)C(=O)Nc1ccc2c(c1)OCCO2 (stereo not drawn) | inactive | 
Cc1noc(C)c1NC(=O)N(C)C[C@H]1OCCCC[C@@H](C)Oc2ccc(NS(=O)(=O)c3ccccc3)cc2C(=O)N([C@H](C)CO)C[C@@H]1C | inconclusive: 23.1 µM [rising, single point] | 
CC(C)N(C(=O)Nc1ccc2nsnc2c1)C(C)C | inconclusive: 0.731 µM [cytotoxic, full curve, poor fit] | 
CCC(C)N(C(=O)CSc1nc(-c2ccccc2)cs1)C1CCS(=O)(=O)C1 (stereo not drawn) | inactive | 
Cc1ccccc1CS(=O)(=O)c1ncc(Cl)c(C(=O)Nc2ccc(F)cc2)n1 | inactive | 

Reformatted with each value named: entries from further up.
CCc1ccc(Nc2nc(N)nc(CSc3nc4ccccc4s3)n2)cc1
  Potency: inactive
COc1ccccc1CN1CC(=O)N2CSC[C@H]2C1=O
  Potency: inconclusive: 32.6 µM [rising, single point]
N#Cc1ccc(-c2nc3c4ccccc4ccn3c2Cc2ccsc2)cc1
  Potency: inactive

Later entries.

SMILES | Potency | activity change, negative = cytotoxicity
CCC(C(=O)NC(C)(C)C)n1c(-c2ccc3c(c2)OCO3)nc2ccccc21 (stereo not drawn) | inconclusive: 7.31 µM [cytotoxic, partial curve, poor fit] | 
CCCc1nnc(NC(=O)c2cc3ccccc3o2)s1 | inconclusive: 23.1 µM [rising, partial curve, poor fit] | 
Cc1cc(C)[n+]2n1C(=O)C(c1ccccc1)=C2[O-] | inconclusive: 18.4 µM [cytotoxic, partial curve, poor fit] | 
Cc1ccc(Cl)cc1NC(=O)Cn1c(=O)c2ccccc2n2nncc12 | inconclusive: 9.2 µM [rising, partial curve] | 
CNc1cncc(-c2cccc(NS(C)(=O)=O)c2)n1 | inconclusive: 29.1 µM [rising, single point] | 
Cc1ccc(-c2cc(C(=O)NCCN3CCOCC3)c3ccccc3n2)o1 | inconclusive: 9.2 µM [cytotoxic, partial curve] | 
CCCCCCCCSc1nnc(CSc2nc3nc(C)cc(C)n3n2)o1 | active: 2.59 µM | 
Cc1cc(/C=N\O)c(C)n1-c1ccncc1 | inconclusive: 29.1 µM [rising, single point] | 
CC(C)[C@H](NC(=O)c1ccc(F)cc1)C(=O)NC1=NCCS1 | inactive | 
COc1ccc(N(C)S(=O)(=O)c2cccc(C(=O)N3CCN(c4ccccc4)CC3)c2)cc1 | inconclusive: 29.1 µM [cytotoxic, single point] | 
COc1ccc(N2CCN(Cc3nc4ccccc4n3C)CC2)cc1 | inconclusive: 11.6 µM [cytotoxic, partial curve, poor fit] | 
Nc1cc(=O)[nH]c(SCC(=O)c2ccc(O)cc2O)n1 | inconclusive: 29.1 µM [rising, single point] | 
COc1ccc(OC)c(CCNC(=O)c2cnn(-c3ccccc3)c2C2CCN(C(=O)OC(C)(C)C)CC2)c1 | inactive | 
CCN(CC)C1CC(=O)N(c2ccc(Br)cc2)C1=O (stereo not drawn) | inactive | 
COc1cc(OC)cc(OC(=O)C2CCN(S(=O)(=O)c3ccc(OC)c(OC)c3)CC2)c1 | inactive | 
Cc1ccc(C)c2[nH]c(=O)c(CCNC(=O)c3ccc(S(=O)(=O)N4CCOCC4)cc3)cc12 | inconclusive: 25.9 µM [cytotoxic, partial curve, poor fit] | 
CCOc1c(Cl)cc(CNC(C)(C)CC(C)(C)C)cc1OC | inconclusive: 20.6 µM [cytotoxic, partial curve, poor fit] | 
O=C1CCC[C@@H]2CC(N(Cc3cc4ccccc4s3)c3ccccc3)C[C@@H]3CCN1[C@H]23 (stereo partly drawn) | inactive | 
Cc1cc(Cl)ccc1NC(=S)N1CCC(C(N)=O)(N2CCCCC2)CC1 | inconclusive: 16.4 µM [cytotoxic, single point] | 
COc1ccc(/C=N/OCC(=O)Nc2nc3ccccc3s2)cc1 |  | inconclusive: 7.69%
CC1(C(=O)NCc2cccs2)Cc2c(-c3ccc4c(c3)OCO4)ccnc2O1 (stereo not drawn) | inconclusive: 3.66 µM [cytotoxic, full curve] | 
COC(=O)c1sc(S(=O)(=O)Nc2ccc(Br)cc2)c(C(=O)OC)c1C | inconclusive: 16.4 µM [cytotoxic, partial curve] | 

— PubChem BioAssay AID1347076 (National Center for Advancing Translational Sciences (NCATS), 2019)
